For one data set, the system named is biotinyl-Leu-oxazolone. The data set is described as follows: self-aminoacylation, catalytic enhancement (BLO) (fold over background); higher = more active; k-Seq, kA / k0A0; sequences stand for … in GGGAAUGGAUCCACAUCUACGAAUUC…UUCACUGCAGACUUGACGAAGCUG
In a few lines:
(§1)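 Each biotinyl-aminoacyl-oxazolone, at 2–1250 μM, was incubated with mutagenized RNA pools (0.43 μM) carrying a 21-nt variable region. The 50 μL reactions contained HEPES/NaCl/KCl/MgCl2/CaCl2 buffer with 5% acetonitrile at pH 6.9–7.0 and ran for 90 minutes at room temperature. After streptavidin capture, RNA was measured by qPCR in triplicate and by Illumina sequencing, and catalytic enhancement was calculated as median kA over the uncatalyzed rate from a pseudo-first-order fit of per-sequence fraction reacted.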

A further data set relates to biotinyl-Phe-oxazolone. Description: self-aminoacylation, catalytic enhancement (BFO) (fold over background); higher = more active; k-Seq, kA / k0A0; sequences stand for … in GGGAAUGGAUCCACAUCUACGAAUUC…UUCACUGCAGACUUGACGAAGCUG
A digest of the protocol:
as §1

The subject of the next data set is biotinyl-Trp-oxazolone. Description: self-aminoacylation, catalytic enhancement (BWO) (fold over background); higher = more active; k-Seq, kA / k0A0; sequences stand for … in GGGAAUGGAUCCACAUCUACGAAUUC…UUCACUGCAGACUUGACGAAGCUG
In a few lines:
as §1

In another data set the test system is biotinyl-Met-oxazolone. The data set is described as follows: self-aminoacylation, catalytic enhancement (BMO) (fold over background); higher = more active; k-Seq, kA / k0A0; sequences stand for … in GGGAAUGGAUCCACAUCUACGAAUUC…UUCACUGCAGACUUGACGAAGCUG
In a few lines:
as §1

Another data set concerns biotinyl-Ile-oxazolone. The data set is described as follows: self-aminoacylation, catalytic enhancement (BIO) (fold over background); higher = more active; k-Seq, kA / k0A0; sequences stand for … in GGGAAUGGAUCCACAUCUACGAAUUC…UUCACUGCAGACUUGACGAAGCUG
In a few lines:
as §1

In a further data set the test system is biotinyl-Val-oxazolone. The data set is described as follows: self-aminoacylation, catalytic enhancement (BVO) (fold over background); higher = more active; k-Seq, kA / k0A0; sequences stand for … in GGGAAUGGAUCCACAUCUACGAAUUC…UUCACUGCAGACUUGACGAAGCUG
In a few lines:
as §1

For 25 sequences, self-aminoacylation results are on record in the supplement of paper PMC9233669.

Variants at the background level are over-represented here.

In the case of “CCACACUUCAUGAAAUCGGUC [Fam1B.1 aminoacylation ribozyme variant]”, the self-aminoacylation in the data set on biotinyl-Leu-oxazolone is 0.65; in the data set on biotinyl-Phe-oxazolone, 0.535; in the data set on biotinyl-Trp-oxazolone it was 0.546; in the data set with biotinyl-Met-oxazolone, 0.654; in the data set on biotinyl-Ile-oxazolone, 0.749; in the data set with biotinyl-Val-oxazolone it was 0.73.
Turning to “AUGUUUGCUAUUAGUCGCAAG [Fam3.1 aminoacylation ribozyme variant]”, the self-aminoacylation in the data set with biotinyl-Leu-oxazolone was determined as 1.33; with biotinyl-Phe-oxazolone, 1.53; in the data set with biotinyl-Trp-oxazolone, 1.91; in the data set on biotinyl-Met-oxazolone it was 1.39; in the data set with biotinyl-Ile-oxazolone, 1.42; with biotinyl-Val-oxazolone, 1.63.
Consider “CCACACCUCAAGCAAUCGGCC [Fam1B.1 aminoacylation ribozyme variant]”, for which the self-aminoacylation in the data set with biotinyl-Leu-oxazolone came to 1.65; in the data set with biotinyl-Phe-oxazolone it was 0.88; with biotinyl-Met-oxazolone, 1.86; in the data set on biotinyl-Ile-oxazolone, 1.76.
Consider “AAGUGUGCUAAUCGUCGCAAG [Fam3.1 aminoacylation ribozyme variant]”, for which the self-aminoacylation was 1.23 in the data set on biotinyl-Leu-oxazolone; 1.88 in the data set on biotinyl-Phe-oxazolone; 1.26 in the data set on biotinyl-Met-oxazolone; 1.49 in the data set with biotinyl-Ile-oxazolone; 1.62 in the data set with biotinyl-Val-oxazolone.
For “AUUCUCCUAGGUCAUCGGGGG [Fam2.2 aminoacylation ribozyme variant]”, the self-aminoacylation with biotinyl-Phe-oxazolone came to 1.58.
For “AAAUUUGCUAAUAUUCGCAAG [Fam3.1 aminoacylation ribozyme variant]”, the self-aminoacylation in the data set on biotinyl-Leu-oxazolone was determined as 1.4; with biotinyl-Phe-oxazolone, 1.34; in the data set with biotinyl-Met-oxazolone, 1.57; in the data set on biotinyl-Ile-oxazolone, 1.96; in the data set on biotinyl-Val-oxazolone it was 1.77.
Taken in the same sequence, the figures for “AAGAUUGCUAAUAGGCGCAAG [Fam3.1 aminoacylation ribozyme variant]” were 1.47, 1.34, 1.27, 1.75 and 1.36.
Regarding “CUUCACCUAGGUCAUCGGGCG [Fam2.2 aminoacylation ribozyme variant]”, in the data set with biotinyl-Phe-oxazolone, the self-aminoacylation worked out at 1.25.
“AAGUUUGCUAUUAGUCGCAGG [Fam3.1 aminoacylation ribozyme variant]”: the self-aminoacylation in the data set with biotinyl-Leu-oxazolone was found to be 1.39; with biotinyl-Phe-oxazolone it was 1.83; with biotinyl-Met-oxazolone, 1.22; in the data set on biotinyl-Ile-oxazolone, 1.39; in the data set with biotinyl-Val-oxazolone it was 1.37.
With “AUUACGCUGGUCAUCGAGCGA [Fam2.1 aminoacylation ribozyme variant]”, the self-aminoacylation came out at 1.3 in the data set on biotinyl-Leu-oxazolone; 0.719 in the data set with biotinyl-Phe-oxazolone; 1.37 in the data set with biotinyl-Met-oxazolone; 1.46 with biotinyl-Ile-oxazolone; 1.69 with biotinyl-Val-oxazolone.
Consider “CCACACUGCAAGCCAUCGGUC [Fam1B.1 aminoacylation ribozyme variant]”, for which the self-aminoacylation stood at 1.56 in the data set on biotinyl-Leu-oxazolone; 1.01 in the data set with biotinyl-Phe-oxazolone; 1.48 with biotinyl-Met-oxazolone; 1.51 in the data set with biotinyl-Ile-oxazolone; 1.93 with biotinyl-Val-oxazolone.
Taken in the same sequence, the figures for “AAUCACCUAGGUCAUAGGGUG [Fam2.2 aminoacylation ribozyme variant]” were 1.7, 1.28, 1.29, 1.88 and 1.72.
In the case of “AUUAUCCUGGUCAUCGAGGGA [Fam2.1 aminoacylation ribozyme variant]”, the self-aminoacylation with biotinyl-Phe-oxazolone was 1.3; in the data set with biotinyl-Trp-oxazolone it was 1.38; in the data set on biotinyl-Met-oxazolone it was 1.67; with biotinyl-Ile-oxazolone, 1.62; in the data set on biotinyl-Val-oxazolone it was 1.46.
Regarding “CCACACUUCAAGCCAUCGCUC [Fam1B.1 aminoacylation ribozyme variant]”, the self-aminoacylation in the data set with biotinyl-Phe-oxazolone came to 1.61; with biotinyl-Met-oxazolone, 1.86; with biotinyl-Ile-oxazolone, 1.81; with biotinyl-Val-oxazolone, 1.67.
For the sequence “CCACAAUUCAAGCAAUCGCUC [Fam1B.1 aminoacylation ribozyme variant]”, the figures for the self-aminoacylation in the data set on biotinyl-Phe-oxazolone and in the data set with biotinyl-Trp-oxazolone were 1.38 and 1.52, respectively.
Regarding “CCACACAUCAAGCAAUCGGGC [Fam1B.1 aminoacylation ribozyme variant]”, the self-aminoacylation with biotinyl-Leu-oxazolone came to 1.47; with biotinyl-Phe-oxazolone it was 0.919; in the data set with biotinyl-Met-oxazolone, 1.73; in the data set with biotinyl-Val-oxazolone, 1.72.
With “CCCCACUUGAAGCAAUCGGUC [Fam1B.1 aminoacylation ribozyme variant]”, the self-aminoacylation with biotinyl-Leu-oxazolone is 1.5; in the data set with biotinyl-Phe-oxazolone, 1.36; in the data set on biotinyl-Met-oxazolone, 1.48; in the data set on biotinyl-Ile-oxazolone, 1.58.
For the sequence “CCAGACUUCAAGCAUUCGGUC [Fam1B.1 aminoacylation ribozyme variant]”, the self-aminoacylation was determined as 1.72 with biotinyl-Phe-oxazolone and 1.86 in the data set with biotinyl-Trp-oxazolone.
For “AAGUUGGCUAAUAGUCUCAAG [Fam3.1 aminoacylation ribozyme variant]”, the self-aminoacylation with biotinyl-Leu-oxazolone was determined as 1.21; in the data set on biotinyl-Phe-oxazolone, 1.62; in the data set with biotinyl-Met-oxazolone it was 1.36; in the data set with biotinyl-Ile-oxazolone it was 1.36; with biotinyl-Val-oxazolone it was 1.23.
On to “CCACACUUCAAGCAACCGGUU [Fam1B.1 aminoacylation ribozyme variant]”, for which the self-aminoacylation in the data set on biotinyl-Leu-oxazolone was determined as 1.29; with biotinyl-Phe-oxazolone it was 1.42; with biotinyl-Trp-oxazolone, 1.59; in the data set on biotinyl-Met-oxazolone it was 1.72; in the data set with biotinyl-Ile-oxazolone it was 1.96.
As to “AAGCUUGCUAAUAUUCGCAAG [Fam3.1 aminoacylation ribozyme variant]”, the values for the self-aminoacylation with biotinyl-Leu-oxazolone, in the data set on biotinyl-Phe-oxazolone and with biotinyl-Met-oxazolone were 1.97, 1.43 and 1.64, respectively.
Turning to “AAGUUUUCUCAUAGUCGCAAG [Fam3.1 aminoacylation ribozyme variant]”, the self-aminoacylation in the data set with biotinyl-Leu-oxazolone amounted to 1.6; with biotinyl-Trp-oxazolone, 2; in the data set on biotinyl-Met-oxazolone it was 1.43; in the data set on biotinyl-Ile-oxazolone, 1.59; in the data set with biotinyl-Val-oxazolone it was 1.35.
In the same order, the values of “CCACUUCAAACAACCGGUCUG [Fam1A.1 aminoacylation ribozyme variant]” are 1.24, 1.78, 1.13, 1.31 and 1.13.
Consider “AAUCACCUAGGUCAUCAGGUG [Fam2.2 aminoacylation ribozyme variant]”, for which the self-aminoacylation in the data set with biotinyl-Leu-oxazolone was found to be 1.39; with biotinyl-Phe-oxazolone, 1.43; with biotinyl-Met-oxazolone, 1.53; in the data set on biotinyl-Ile-oxazolone, 1.58; in the data set on biotinyl-Val-oxazolone it was 1.75.
On to “CGACUUCAAACAAUCGGUCUC [Fam1A.1 aminoacylation ribozyme variant]”, for which the self-aminoacylation in the data set with biotinyl-Leu-oxazolone is 1.99; with biotinyl-Trp-oxazolone it was 31.1; with biotinyl-Met-oxazolone, 1.59; in the data set with biotinyl-Ile-oxazolone, 1.52; in the data set on biotinyl-Val-oxazolone it was 1.35.
